# Laboratory results reported in US20220047701A1, “COMBINATION OF HER2/NEU ANTIBODY WITH HEME FOR TREATING CANCER” (INSERM (Institut National de la Santé et de la Recherche …, priority 2018, published 2022).
# Tested on: Trastuzumab
# Test: SPR binding kinetics and thermodynamics of heme to immobilized Trastuzumab
# Protocol: Trastuzumab was immobilized on a CMS sensor chip (Biacore) by using amine-coupling kit provided by the manufacturer. The Ab was diluted in 5 mM maleic acid (pH 4) to a final concentration of 10 μg/ml. The achieved immobilization level was 6300 resonance unit (RU). All measurements were performed using HBS-EP (0.01M HEPES, pH 7.4 containing 0.15 M NaCl, 3 mM EDTA and 0.05% Tween 20). Initially, a stock solution of heme (hemin, Frontiers Scientific, Logan, Utah) at 1 mM was prepared in 0.05 N NaOH. Heme was further diluted to 10 μM in the running buffer and 8 two-fold dilutions (10-0.078 μM) were injected at flow rate of 30 μl/min. The association and dissociation phases of the interaction were monitored for 5 min and 10 min, respectively. The binding to the surface of the reference flow cell was subtracted from the binding to the Ab-coated flow cells. The regeneration of the bound-heme was achieved by exposure of the sensor surface to 300 mM imidazole. All binding analyses were performed at temperatures of 5, 10, 15, 20, 25, 30 and 35° C. The BIAevaluation version 4.1 software (Biacore) was used for the estimation of the kinetic rate constants. Calculations were performed by global analyses of the experimental data using the Langmuir binding with drifting base-line model included in the software.
# Heme was diluted at 10 μM in HBS-EP and injected at flow rate of 30 ul/min. The association and dissociation phases of the interaction were monitored for 5 min and 10 min, respectively. Analysis was performed as described above.
# The kinetic rate constants obtained at different temperatures were used to build Arrhenius plots. The values of slopes of the Arrhenius plots were calculated by using a linear regression analysis of the experimental kinetic data and substituted in Equations 1-4,
# Where the “slope”=∂1n(ka/d/∂(1/T), and where Ea is the activation energy. The enthalpy, entropy, and Gibbs free energy changes characterizing the association phase were calculated using Equations 2-4,
# 1n(ka/d/T)=ΔH/RT+ΔS/R+1n(k′/h) (Eq. 3)
# where T is the temperature in Kelvin, k′ is the Boltzmann constant, and h is Planck's constant. All activation thermodynamic parameters were determined at the reference temperature of 25° C. (298.15 K).
# To evaluate the changes of the thermodynamic parameters at equilibrium following equation were applied—
# ? Geq= ? G‡a− ? G‡d,
# ? Heq= ? H‡a− ? H‡d,
# T ? Seq=T ? S‡a−T ? S‡d
# [1] = dissociation phase, apparent value
substance,measurement,setting,value
iron protoporphyrin IX [heme],ΔH during association,"association phase, apparent value, 25° C.",40.2 ± 7.2 kJ·mol·L
same,TΔS during the association,"association phase, reference temperature 25° C.",-12.4 ± 7.3 kJ·mol·L
same,TΔS during dissociation,[1],negative
same,ΔH during dissociation,[1],negative
same,TΔS at equilibrium,equilibrium,127 ± 18.3 kJ·mol·L
same,ΔH at equilibrium,equilibrium,87.7 ± 18.9 kJ·mol·L
